Data source: PubChem BioAssay AID1259424 (University of Nebraska Medical Center, 2018)
Test: 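Seek colon cancer survival genes behaving like KSR1, using a six-gene signature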 (primary screen). Cell system: human HCT116 colon cancer cells. Reagent: siRNA pool against human genes, 50 nM. Detection: 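Log2 levels of six mRNAs (branched-DNA multiplex), adjusted by two reference genes and the non-targeting median, then scored against the average KSR1 knockdown pattern as Pearson r and euclidean distance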. Scale: mean correlation with KSR1 profile: higher = expression change more like KSR1 knockdown; mean distance from KSR1 profile: higher = expression change less like KSR1 knockdown.
The whole screen tested about 14,000 reagents; below is an unselected part. 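Higher correlation or smaller distance means closer resemblance to KSR1 loss; control wells, including KSR1 knockdowns, recur on many plates.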 Further read-outs or replicates are left out here. No sequences are given here. The record does not give: the time to read-out.

After knock-down of HNRNPU [SID363995478], the screen gave mean correlation with KSR1 profile -0.0432; mean distance from KSR1 profile 1.8.
With knock-down of FAM120C [SID364000579] the results were mean correlation with KSR1 profile -0.141; mean distance from KSR1 profile 1.82.
After knock-down of TRPS1 [SID363998601] the results were mean correlation with KSR1 profile 0.225; mean distance from KSR1 profile 2.86.
With knock-down of RHNO1 [SID364003647] the results were mean correlation with KSR1 profile 0.839; mean distance from KSR1 profile 1.06.
After knock-down of ZNF136 [SID363994539], the screen gave mean correlation with KSR1 profile 0.256; mean distance from KSR1 profile 1.4.
RPS15A [SID363992317] gave mean correlation with KSR1 profile 0.0296; mean distance from KSR1 profile 3.53.
With knock-down of SDHAF2 [SID364000573], the record shows mean correlation with KSR1 profile -0.401; mean distance from KSR1 profile 2.24.
After knock-down of DLX3 [SID363996143] the results were mean correlation with KSR1 profile 0.804; mean distance from KSR1 profile 0.725.
FOXA2 [SID364002177] showed mean correlation with KSR1 profile 0.435; mean distance from KSR1 profile 2.66.
Knock-down of HDAC11 [SID364003092] gave: mean correlation with KSR1 profile 0.361; mean distance from KSR1 profile 1.21.
After knock-down of RBM4 [SID363994051] the results were mean correlation with KSR1 profile 0.263; mean distance from KSR1 profile 2.44.
With knock-down of DYNLL1 [SID363994813], the record shows mean correlation with KSR1 profile -0.162; mean distance from KSR1 profile 1.75.
With knock-down of MUS81 [SID364003261] the results were mean correlation with KSR1 profile 0.745; mean distance from KSR1 profile 2.69.
Silencing of SLC19A1 [SID363994204] gave: mean correlation with KSR1 profile -0.109; mean distance from KSR1 profile 1.43.
Silencing of RSF1 [SID364000208] came out at: mean correlation with KSR1 profile 0.427; mean distance from KSR1 profile 1.13.
Against MASP2 [SID363997400] the deposit lists mean correlation with KSR1 profile 0.00438; mean distance from KSR1 profile 3.17.
After knock-down of FCER1A [SID363993213], the screen gave mean correlation with KSR1 profile -0.288; mean distance from KSR1 profile 1.91.

Taken from above.
Under “mean distance from KSR1 profile”, RHNO1 [SID364003647] reads 1.06
Entry of FAM120C [SID364000579] in “mean distance from KSR1 profile”: 1.82

The list goes on.
SYNPO2L [SID364003129] showed mean correlation with KSR1 profile 0.525; mean distance from KSR1 profile 1.65.
PBX4 [SID364003344] showed mean correlation with KSR1 profile 0.503; mean distance from KSR1 profile 1.23.
With knock-down of ECH1 [SID363992667], the screen gave mean correlation with KSR1 profile 0.669; mean distance from KSR1 profile 2.21.
EPB41L4A [SID364002366] scored mean correlation with KSR1 profile -0.301; mean distance from KSR1 profile 2.45.
After knock-down of MRPS28 [SID363998553], the screen gave mean correlation with KSR1 profile -0.464; mean distance from KSR1 profile 2.15.
For WDR73 [SID364004231], the values are mean correlation with KSR1 profile 0.456; mean distance from KSR1 profile 3.24.
RFC3 [SID363994070] scored mean correlation with KSR1 profile -0.232; mean distance from KSR1 profile 1.63.
Knock-down of NCAM2 [SID363995512] gave: mean correlation with KSR1 profile 0.32; mean distance from KSR1 profile 1.25.
With knock-down of PTPN22 [SID363998296], the screen gave mean correlation with KSR1 profile -0.0559; mean distance from KSR1 profile 2.65.
For RMI1 [SID364003177], the values are mean correlation with KSR1 profile 0.59; mean distance from KSR1 profile 1.58.
OXA1L [SID363995954] gave mean correlation with KSR1 profile -0.0497; mean distance from KSR1 profile 2.1.
PAPPA [SID363993750] scored mean correlation with KSR1 profile 0.319; mean distance from KSR1 profile 1.41.
With knock-down of CENPU [SID364002928], the screen gave mean correlation with KSR1 profile 0.0592; mean distance from KSR1 profile 1.71.
Against SHROOM4 [SID364005225], the entry reads mean correlation with KSR1 profile 0.293; mean distance from KSR1 profile 2.14.
TIMCC [SID364004200] gave mean correlation with KSR1 profile 0.685; mean distance from KSR1 profile 5.12.
RAB4A [SID363995549] scored mean correlation with KSR1 profile -0.368; mean distance from KSR1 profile 4.15.
Against ACBD5 [SID364004668] the deposit lists mean correlation with KSR1 profile 0.0447; mean distance from KSR1 profile 1.26.
PRDX3 [SID363997561] showed mean correlation with KSR1 profile -0.0972; mean distance from KSR1 profile 1.6.
For RELB [SID363997306], the values are mean correlation with KSR1 profile -0.309; mean distance from KSR1 profile 2.37.
